Laboratory results taken from PubChem BioAssay AID1471 (National Center for Advancing Translational Sciences (NCATS), 2008).
In all, about 230,000 compounds went through this assay and about 310 (0.13%) were called active. This list was built around the results that the source calls inconclusive (neither active nor inactive); the mix of calls is not that of the screen. Calls follow the shape of the dose curve; as a rule, active = well fitted activation curve with a large enough effect; inconclusive = small, poorly fitted or top-dose-only effect; inactive = no such curve, though single readings can be large or run the other way. Where the call is inconclusive, the potency comes from a doubtful curve fit.

Assay: qHTS Multiplex Assay to Identify Dual Action Probes in a Cell Model of Huntington: Cytoprotection (ATP); also: nearly all actives have a fitted effect of over 45% in size;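 as to cytoprotection (ATP increase): toxic huntingtin expression switched on by the ecdysone agonist tebufenozide; % of control where 0% means no effect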
Conditions: PC12 HTT-Q103 induced, ATP luminescence, 40 h; cytoprotection (ATP increase): at 56.4 µM (top of the series) unless noted
Summary of the method: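 Quantitative HTS on tebufenozide-induced (100 nM) PC12 cells expressing HTTQ103 exon 1–GFP; compounds tested as a concentration series; survival measured via cellular ATP.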
Potency is read from the fitted curve at half-maximal effect.

| Structure (SMILES) | Potency | cytoprotection (ATP increase) |
| --- | --- | --- |
| Cc1nc2sc(C(c3ccco3)N3CCN(c4ccccc4F)CC3)c(O)n2n1 (configuration not stated) | inconclusive: 6310 nM [activator, single point] | – |
| COc1ccccc1[C@@H]1C(c2ccccc2)=NN(c2ccccc2)[C@H]1C(=O)N1CCOC1=O | inconclusive: 6310 nM [activator, partial curve] | – |
| CCCNC(=O)OC[C@@H]1O[C@H](CCO/N=C2\c3cc(OC)ccc3O[C@H](c3cccc(OC)c3)[C@H]2O)C=C[C@@H]1Oc1ccc(OC)cc1 | inconclusive: 89.1 nM [activator, full curve, poor fit] | – |
| CN(C)c1ccc(/C=N/Nc2cc(N3CCOCC3)nc(N3CCOCC3)n2)cc1 | inconclusive: 3550 nM [activator, single point] | – |
| CCN(CC)CCNC(=S)Nc1ccc(F)cc1 | inconclusive: 6.3 nM [activator, full curve, poor fit] | – |
| O=C(CN1CCCCC1)N1c2ccccc2Sc2ccc(C(F)(F)F)cc21 | inconclusive: 794 nM [activator, full curve, poor fit] | – |
| O=C(CSc1cccc[n+]1[O-])CSc1cccc[n+]1[O-] | inconclusive: 5620 nM [activator, single point] | – |
| CC(C)(C)C1CC=C2C(C#N)=C(N)C(C#N)(C#N)C(c3cccs3)C2C1 (configuration not stated) | inconclusive: 22400 nM [activator, single point] | – |
| CCOC(=O)c1ccccc1NC(=O)COC(=O)c1ccc(C)c(S(=O)(=O)N2CCOCC2)c1 | inconclusive: 5620 nM [activator, single point] | – |
| CN1/C(=C\C=C2/SC(=S)NC2=O)C(C)(C)c2ccccc21 | – | inactive: -5.4% [at 10 µM] |
| CCN1C(=O)N[C@@H](CCc2ccccc2)[C@H](C(=O)OC)[C@H]1C | inconclusive: 1260 nM [activator, single point] | – |
| Fc1ccccc1-c1nc(-c2ccccc2)oc1NC1CCCCC1 | – | inactive: 25.1% |
| CC(C)c1nnc(NC(=O)C2CCCO2)s1 (configuration not stated) | inconclusive: 5620 nM [activator, single point] | – |
| CCn1cc(C(=O)O)c(=O)c2cc(F)c(N3CCNCC3)nc21 | inconclusive: 158 nM [activator, partial curve, poor fit] | – |
| CN(C)/N=C/C=C1\CCC/C(=C\c2ccc(F)c(F)c2)C1=O | – | inactive: -30.3% |
| CCCNC(=O)c1ccc2c(=O)c(O)c(-c3cccc(Br)c3)[nH]c2c1 | – | inactive: -23.3% [at 10 µM] |
| O=C(COC(=O)c1ccc(Br)o1)NC1CCCCC1 | inconclusive: 891 nM [activator, full curve, poor fit] | – |
| CCOC(=O)N1CCN(c2cc(C)c(C(C)=O)cc2F)CC1 | – | inactive: 3.04% |
| [O-][n+]1cccc2c(Br)cc(Br)c(O)c21 | – | inactive: -46.6% |
| CCOC(=O)c1sc2nccc(OC)c2c1N=CNOC | inconclusive: 1260 nM [activator, single point] | – |
| COc1ccc(S(=O)(=O)N(CC(=O)NC2CC2)c2ccc(C)cc2)cc1 | inconclusive: 5 nM [activator, full curve, poor fit] | – |

| Structure (SMILES) | Potency | cytoprotection (ATP increase) |
| --- | --- | --- |
| COC(=O)N1C(c2ccccc2)=Cc2ccccc2C1CC(C)=O (configuration not stated) | inconclusive: 251 nM [activator, partial curve] | – |
| Cc1ccc2nc(NC(=O)c3cc(-c4ccco4)nc4ccccc34)sc2c1 | inconclusive: 6310 nM [activator, single point] | – |
| Cc1cc(O)c(C(C)C)cc1N=Cc1cc([N+](=O)[O-])ccc1O | – | inactive: 2.22% [at 10 µM] |
| Cc1cc2n(n1)SC(Nc1ccc(F)c(Cl)c1)N2 (configuration not stated) | – | inactive: 7.97% [at 10 µM] |
| COc1cc(C(=S)N2CCOCC2)ccc1O | inconclusive: 1000 nM [activator, partial curve, poor fit] | – |
| CCCNC(=O)OC[C@@H]1O[C@H](CCO/N=C\C[C@H]2C=C[C@H](OC(C)=O)[C@@H](COC(C)=O)O2)C=C[C@@H]1Oc1ccc(OC)cc1 | – | inactive: -5.33% [at 10 µM] |
| Cc1ccc(-c2nnc(N3CCN(C(=O)c4ccco4)CC3)c3ccccc23)cc1 | – | inactive: -19.8% [at 0.074 µM] |
| CC(C)=CCOc1ccc(/C=C/C(=O)c2ccc(OCC=C(C)C)cc2OCC(=O)O)cc1 | inconclusive: 7080 nM [activator, partial curve, poor fit] | – |
| Oc1c(C(Nc2cccc(C(F)(F)F)c2)c2cccnc2)ccc2cccnc12 (configuration not stated) | – | inactive: 11.3% [at 10 µM] |
| Cc1ccc(S(=O)(=O)NCCC(=O)Nc2nnc(C3CC3)s2)cc1C | – | inactive: 4.46% |
| CC(=O)N[C@@H](Cc1c[nH]c2ccccc12)C(=O)O | inconclusive: 1260 nM [activator, single point] | – |
| CCN1CCc2c(OCC(=O)N3CCC(C)CC3)cccc2C1=O | inconclusive: 3980 nM [activator, single point] | – |
| COC(=O)[C@@]1(Cc2ccc(F)cc2)[C@H]2c3cc(C(=O)N(C)C)n(Cc4ccc(OC)c(OC)c4)c3C[C@H]2CN1C(=O)c1ccccc1 | inconclusive: 5010 nM [activator, partial curve, poor fit] | – |
| COc1ccc([N+](=O)[O-])c2c1CCN2C(=O)CC[C@H](N)C(=O)O | inconclusive: 282 nM [activator, partial curve] | – |
| c1ccc(SC(Sc2ccccc2)c2ccc3c(c2)OCO3)cc1 | – | inactive: -6.67% [at 10 µM] |
| CCn1c(SCC(=O)Nc2nccc(C)n2)nc2ccccc21 | – | inactive: 0.0612% [at 10 µM] |
| Cc1cc2nc(C3CCN(Cc4nnnn4Cc4ccccc4)CC3)[nH]c2cc1C | – | inactive: 0.173% |
| CN1Cc2c(C(=O)OC(C)(C)C)ncn2-c2ccsc2C1=O | inconclusive: 89.1 nM [activator, partial curve, poor fit] | – |
| Cc1ccc(-c2nc3ccccc3s2)cc1NC(=O)c1cc(-n2cnnc2)ccc1Cl | – | inactive: -9.67% |
| CN(C(=O)COC(=O)c1ccc([N+](=O)[O-])cc1Cl)C1CCCCC1 | inconclusive: 35500 nM [activator, single point] | – |
| N#Cc1cccc(NC(=O)N2CC[C@@]3(CCCNC3)C2)c1 | inconclusive: 794 nM [activator, single point] | – |

Exported as tab-separated lines: entries from further up
Structure (SMILES)	Potency	cytoprotection (ATP increase)
CC(C)=CCOc1ccc(/C=C/C(=O)c2ccc(OCC=C(C)C)cc2OCC(=O)O)cc1	inconclusive: 7080 nM [activator, partial curve, poor fit]	–
Oc1c(C(Nc2cccc(C(F)(F)F)c2)c2cccnc2)ccc2cccnc12 (configuration not stated)	–	inactive: 11.3% [at 10 µM]
